Assay results taken from the supplement of paper PMC7024190.
Structures can show the parent of a compound that is named as a salt. Some of the results follow. Single values are uncertain here, since repeats match poorly.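 Human embryonic kidney cells were transiently transfected with a plasmid bearing a Renilla luciferase gene under the HSV-TK promoter. This first-round screen tests roughly ten thousand compounds for ones that increase reporter output.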

Each compound was assayed on HEK 293FT (assay: log relative Renilla luciferase luminescence (reporter expression vs reference, reference not stated) (log (base not stated)); higher = higher recombinant reporter expression). Conditions: 10 µM; time after transfection 48 h.
`COC(=O)C1=C(C)NC(C)=C(C(=O)OC(C)C)C1c1cccc2nonc12` (stereo not given) [Isradipine] gave a log of -0.00324.
Compound `CCOc1ccccc1OC(c1ccccc1)C1CNCCO1` (stereo not given) [Reboxetine mesylate] has a log of 0.0677.
`CC(C)(C)n1nc(-c2cccc3ccccc23)c2c(N)ncnc21` [1-Naphthyl PP1] was tested, and the log was -0.00962.
Compound `C[C@H]1O[C@H](O[C@H]2[C@H](O)[C@@H](O)[C@@H](O[C@H]3[C@H](O)[C@@H](O)C(O)O[C@@H]3CO)O[C@@H]2CO)[C@H](O)[C@@H](O)[C@@H]1N[C@H]1C=C(CO)[C@@H](O)[C@H](O)[C@H]1O` (stereo not given in full) [Acarbose] has a log of -0.0206.
`COc1cc(OC)c(NC(=O)Nc2cc(C)on2)cc1Cl` showed a log of -0.0275.
In the case of `O=C(NCCCCN1CCN(c2cccc(Cl)c2Cl)CC1)c1ccc2c(c1)Cc1ccccc1-2`, the log is reported as -0.0719.
`COc1cc2ncnc(Nc3ccc(F)c(Cl)c3)c2cc1OCCCN1CCOCC1` [Iressa] gave a log of -0.0332.
For `O=C(NCCN1CCCCC1)c1ccc(I)cc1` [N-[2-(Piperidinylamino)ethyl]-4-iodobenzamide], the log was 0.00743.
`NC(C(=O)O)c1ccc(C(=O)O)c(C(=O)O)c1` (racemic) gave a log of 0.00954.
`C[C@H](NC(=O)c1sccc1OCc1ccc(Cl)cc1)c1ccccc1` was tested, and the log was -0.0256.
With `N=C(N)SCCc1c[nH]cn1` [Imetit dihydrobromide] the log was 0.588.
In the case of `O=C(c1ccc(Nc2nccc(-c3cc4ccccc4s3)n2)cc1)N1CCC(N2CCCC2)CC1`, the log is reported as -0.108.
With `CCS(=O)(=O)N1CCC[C@@H]2CN3CCc4cc(OC)ccc4[C@@H]3C[C@@H]21` the log was 0.0792.
Compound `Cc1ccc(/C=C2\CNC/C(=C\c3ccc(C)cc3)C2=O)cc1` has a log of 0.03.
`O=C(O)c1cc(O)c2ccc(Cl)cc2n1` [7-Chlorokynurenic acid] was tested, and the log was -0.507.
`COC(=O)c1c(-c2cc(OC)c(OC)c(OC)c2)c2ccnc(OCc3ncccn3)c2c(=O)n1Cc1ccnc(C)c1` [T 0156 hydrochloride] was tested, and the log was 0.0768.
In the case of `CCCCOC(=O)c1cc2c(cn1)[nH]c1ccccc12`, the log is reported as 0.023.
With `CC/C(=C(\c1ccccc1)c1ccc(OCCN(C)C)cc1)c1ccccc1` [Tamoxifen citrate] the log was 0.00213.
`CN(C)c1nc(N)c(C(=O)Nc2cccnc2)nc1Cl` [ACDPP hydrochloride] showed a log of 0.151.
For `O=C(C=Cc1ccccc1)NC(NC(=S)Nc1ccc(Cl)cc1)C(Cl)(Cl)Cl` (stereo not given), the log was -0.0942.
`CN(C)C/C=C(/c1ccc(Br)cc1)c1cccnc1` [Zimelidine dihydrochloride] showed a log of -0.497.
`COc1[nH]c2ccc(F)cc2c1C(=O)OCC1CCN(CCNS(C)(=O)=O)CC1.NS(=O)(=O)O` was tested, and the log was 0.0285.
Work on `NCCCCCc1c[nH]cn1` [Impentamine dihydrobromide] yielded a log of 0.205.
With `OC(CN1CCN(c2cccc(Cl)c2)CC1)C(c1ccccc1)c1ccccc1` (stereo not given) the log was 0.025.
With `COc1cc2nc(N3CCN(C(=O)c4ccco4)CC3)nc(N)c2cc1OC` [Prazosin hydrochloride] the log was 0.0428.
In the case of `CC(=O)Nc1ccc(O)cc1` [Acetaminophen], the log is reported as 0.023.
`Cc1cc(NC(=O)Nc2ccc(N(C)C)cc2)c2cc(F)cc(F)c2n1` gave a log of 0.00349.
Compound `Cc1nn(C)c2nc(NNC(=O)Nc3cc(Cl)nc(Cl)c3)cc(C(C)C)c12` has a log of -0.0623.
`COc1cc2ncnc(Nc3ccc(Oc4ccccc4)cc3)c2cc1OC` gave a log of -0.112.
For `N[C@@H](C(=O)O)c1ccc(O)c(C(=O)O)c1` [(R)-3-Carboxy-4-hydroxyphenylglycine], the log was 0.033.
In the case of `Cc1ccc2c(c1)C(=O)C1(O)CCN(c3ccccc3)C1=N2` (racemic) [(±)-Blebbistatin], the log is reported as -0.298.
With `Nc1nc(Cl)nc2c1ncn2[C@@H]1O[C@H](CO)[C@@H](O)[C@@H]1F` [Clofarabine] the log was -1.02.
With `Nc1ccc(-c2nc3ccc(-c4nc5ccc(N)cc5[nH]4)cc3[nH]2)cc1` the log was -0.102.
`O=c1cc(N2CCOCC2)oc2c1ccc1ccccc12` showed a log of -8.27e-06.
In the case of `COc1ccc2[nH]c(-c3ccccc3)c(CCNC(C)=O)c2c1` [2-Phenylmelatonin], the log is reported as 0.0591.
`COC(=O)/C=C/c1cccc(N(Cc2ccc(-c3ccc(N(C)C)cc3)cc2)C(=O)C2CCCCC2)c1` [Fexaramine] was tested, and the log was -0.0188.
For `Cc1c(C2CCN(CCc3ccccc3)CC2)noc1-c1ccc(Cl)cc1` [L-741,742 hydrochloride], the log was 0.109.
With `COc1ccccc1N1CCN(CCCCNC(=O)c2ccc(-c3ccc(C(C)=O)cc3)cc2)CC1` the log was 0.031.
Work on `CC(C)C[C@H](NC(=O)N1CCCCCC1)C(=O)N[C@H](Cc1cn(C)c2ccccc12)C(=O)N[C@H](Cc1ccccn1)C(=O)O` yielded a log of 0.116.
Compound `CCCCCCCCCCCCCCCCn1cc[n+](Cc2ccccc2)c1C` has a log of -0.963.
